Results deposited as PubChem BioAssay AID504791 (Drosophila RNAi Screening Center, 2011)

Assay: 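Factors in Argonaute-based small RNA production and activity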 (primary screen)
Cell system: Drosophila S2-derived reporter cells
Reagent: long dsRNA against Drosophila genes, about 150-250 ng dsRNA per well (siRNA assay); about 80-120 ng (miRNA assay)
Time to read-out: about 5 days (siRNA assay); about 4 days (miRNA assay)
Challenge: copper sulfate induction of reporters: 25 µM (siRNA assay); 200 mM stated (miRNA assay), 1-2 days before reading
Measured: 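Dual luciferase assay: Renilla to firefly signal ratio in each well, scaled to the mean ratio of its plate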
Units: stable assay Renilla, run 1 in luminescence; stable assay firefly, run 1 in luminescence
Rule for the call: 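First-pass picks had plate-scaled ratios over 1.5 for the siRNA assay, over 1.6 for the miRNA assay, or under 0.6; two distinct dsRNAs had to score alike on retest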
In all, the deposit lists about 23,000 reagents; shown is a random part of those that have a named target and a result. Over the whole deposit, 199 (0.86%) are marked active. 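Plate-scaled ratios behind the calls are not deposited; printed light signals are raw; many rows marked increased or decreased are still called inactive.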 A plus sign joins genes that one reagent is predicted to hit. Not stated in the record: the direction of the score.

With knock-down of CG32071 [DRSC22298], the record shows stable assay Renilla, run 1 = 8914; stable assay firefly, run 1 = 4.52e5; inactive. Polr2H (RNA polymerase II, I and III subunit H) [DRSC11642] scored stable assay Renilla, run 1 = 4735; stable assay firefly, run 1 = 2.02e5; inactive. Srp54 (Splicing regulatory protein 54) [DRSC03442] gave stable assay Renilla, run 1 = 22830; stable assay firefly, run 1 = 4.80e5; inactive. With knock-down of LeuRS (Leucyl-tRNA synthetase) [DRSC00581], the screen gave stable assay Renilla, run 1 = 9189; stable assay firefly, run 1 = 7.16e5; inactive. With knock-down of mmm (missing minor mitochondria) [DRSC10208], the record shows stable assay Renilla, run 1 = 6247; stable assay firefly, run 1 = 3.63e5; inactive. Knock-down of TSG101 (Tumor susceptibility gene 101) [DRSC11098] came out at: stable assay Renilla, run 1 = 7443; stable assay firefly, run 1 = 4.75e5; inactive.

Depletion of snRNP-U1-C (small ribonucleoprotein particle U1 subunit C) [DRSC15804] came out at: stable siRNA reporter change reporter ratio raised past the hit cutoff; miRNA reporter change reporter ratio raised past the hit cutoff; stable assay Renilla, run 1 = 16638; stable assay firefly, run 1 = 2.86e5; active. Against CG12325 [DRSC06130], the values are stable assay Renilla, run 1 = 7058; stable assay firefly, run 1 = 3.73e5; inactive. Against Coq3 (Coenzyme Q3) [DRSC03168], the values are stable assay Renilla, run 1 = 7334; stable assay firefly, run 1 = 5.58e5; inactive. With knock-down of Pepck1 (Phosphoenolpyruvate carboxykinase 1) [DRSC07505], the screen gave stable assay Renilla, run 1 = 6802; stable assay firefly, run 1 = 3.83e5; inactive. After knock-down of CG6142 [DRSC15976] the results were stable assay Renilla, run 1 = 7215; stable assay firefly, run 1 = 3.36e5; inactive. Knock-down of Listericin [DRSC07334] came out at: stable assay Renilla, run 1 = 7237; stable assay firefly, run 1 = 4.12e5; inactive.

CG15601 [DRSC19670] showed stable assay Renilla, run 1 = 5406; stable assay firefly, run 1 = 3.11e5; inactive. For PH4alphaNE1 (prolyl-4-hydroxylase-alpha NE1) [DRSC16546], the values are stable assay Renilla, run 1 = 7383; stable assay firefly, run 1 = 3.58e5; inactive. After knock-down of sta (stubarista) [DRSC18838] the results were stable assay Renilla, run 1 = 5891; stable assay firefly, run 1 = 3.62e5; inactive. CG5447 [DRSC15801] scored stable assay Renilla, run 1 = 6791; stable assay firefly, run 1 = 4.20e5; inactive. alphaKap4 (alpha Karyopherin-4) [DRSC09823] scored stable assay Renilla, run 1 = 6159; stable assay firefly, run 1 = 4.48e5; inactive. After knock-down of GstT4 (Glutathione S transferase T4) [DRSC19757] the results were stable assay Renilla, run 1 = 7558; stable assay firefly, run 1 = 4.29e5; inactive.

With knock-down of Pstk + Tim9b [DRSC19504], the screen gave stable assay Renilla, run 1 = 8255; stable assay firefly, run 1 = 5.98e5; inactive. Against Pstk + Tim9b [DRSC20292], the values are stable assay Renilla, run 1 = 5842; stable assay firefly, run 1 = 3.20e5; inactive. GluRIID (Glutamate receptor IID) [DRSC16723] scored stable assay Renilla, run 1 = 9251; stable assay firefly, run 1 = 5.58e5; inactive. For Ufc1 (Ubiquitin-fold modifier conjugating enzyme 1) [DRSC07156] the deposit lists stable assay Renilla, run 1 = 9893; stable assay firefly, run 1 = 3.53e5; inactive. With knock-down of meep [DRSC07948], the screen gave stable assay Renilla, run 1 = 5619; stable assay firefly, run 1 = 4.12e5; inactive. Silencing of sr (stripe) [DRSC13284] gave: stable assay Renilla, run 1 = 4586; stable assay firefly, run 1 = 4.35e5; inactive.

Against sr (stripe) [DRSC17067], the entry reads stable assay Renilla, run 1 = 5159; stable assay firefly, run 1 = 2.46e5; inactive. CG43996 [DRSC19456] gave stable assay Renilla, run 1 = 3643; stable assay firefly, run 1 = 2.83e5; inactive. With knock-down of CG43996 [DRSC19457] the results were stable assay Renilla, run 1 = 3791; stable assay firefly, run 1 = 2.55e5; inactive. Silencing of Loxl2 (Lysyl oxidase-like 2) [DRSC04469] came out at: stable assay Renilla, run 1 = 1.28e5; stable assay firefly, run 1 = 4.04e5; inactive. With knock-down of CG16736 [DRSC15145], the screen gave stable assay Renilla, run 1 = 7464; stable assay firefly, run 1 = 3.99e5; inactive. With knock-down of SREBP (Sterol regulatory element binding protein) [DRSC11182], the record shows stable siRNA reporter change reporter ratio raised past the hit cutoff; stable assay Renilla, run 1 = 5295; stable assay firefly, run 1 = 1.84e5; active.

CG8950 [DRSC07300] gave stable assay Renilla, run 1 = 9662; stable assay firefly, run 1 = 4.00e5; inactive. For Dred (Dctn1-related) [DRSC11057], the values are stable assay Renilla, run 1 = 6927; stable assay firefly, run 1 = 3.42e5; inactive. Dred (Dctn1-related) [DRSC11059] gave stable assay Renilla, run 1 = 4767; stable assay firefly, run 1 = 4.87e5; inactive. For CG11563 [DRSC14327], the entry reads stable assay Renilla, run 1 = 7263; stable assay firefly, run 1 = 5.05e5; inactive. PolA1 (DNA polymerase alpha subunit 1) [DRSC16640] gave stable assay Renilla, run 1 = 13792; stable assay firefly, run 1 = 5.76e5; inactive.

Already shown: an excerpt of the list.
SREBP (Sterol regulatory element binding protein) [DRSC11182]: stable siRNA reporter change = reporter ratio raised past the hit cutoff; stable assay Renilla, run 1 = 5295; stable assay firefly, run 1 = 1.84e5; Outcome = active
CG8950 [DRSC07300]: stable assay Renilla, run 1 = 9662; stable assay firefly, run 1 = 4.00e5; Outcome = inactive
Dred (Dctn1-related) [DRSC11057]: stable assay Renilla, run 1 = 6927; stable assay firefly, run 1 = 3.42e5; Outcome = inactive
